# Several values for one entry are separate records, joined by “and”; a condition that tells them apart may be missing. Equal values may be shown once. Out of some 400,000 compounds screened, about 5,500 (1.4%) were called active. This list was built around the results that the source calls inconclusive (neither active nor inactive); the mix of calls is not that of the screen. Calls come from the whole dose curve; as a rule, active = well fitted cell-killing curve with a large enough effect; inconclusive = small, poorly fitted or top-dose-only effect, or effect the other way; inactive = flat fitted curve, though single readings scatter. Potencies of inconclusive entries are doubtful fits and often do not repeat.
# Experiment: qHTS assay for MDR1-selective chemotherapeutics: Primary screen using the parental adenocarcinoma cell KB-3-1; note: nearly all actives have a fitted effect of over 60% in size
# Details: KB-3-1 viability, CellTiter-Glo ATP luminescence, 72 h; series mostly up to 46.1 µM
# Outline: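 Here the drug-naive KB-3-1 line serves as comparator for MDR sub-line selectivity; cells received compound titrations, 72 h at 37 °C, then CellTiter-Glo readout.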
# Potency is the fitted concentration of half-maximal effect.
row,Compound,Potency
1,O=C1C=C(Nc2ccccc2)c2ccccc2C1=O,active: 5.8 µM
2,CCOc1cc(C=C(C(=O)OC)C(=O)OC)ccc1OCc1ccc([N+](=O)[O-])cc1,active: 18.4 µM
3,CCCCOc1ccc(C(O)C(CN2CCCCC2)c2ccccc2)cc1 (stereo unspecified),"inconclusive: 32.6 µM [cytotoxic, partial curve, poor fit]"
4,Cc1ccc(NC(=O)NCC2CCN(Cc3cc(C)ccc3Cl)CC2)c(C)c1,"inconclusive: 20.6 µM [cytotoxic, single point]"
5,CC(=O)Nc1ccc(S(=O)(=O)N(Cc2ccco2)Cc2cc3ccccc3[nH]c2=O)cc1,"inconclusive: 16.4 µM [cytotoxic, single point]"
6,Brc1ccc2[nH]c3c(c2c1)CCC3,"inconclusive: 29.1 µM [cytotoxic, single point]"
7,Cc1onc(-c2c(Cl)cccc2Cl)c1C(=O)NNc1ccccc1,"inconclusive: 29.1 µM [cytotoxic, single point]"
8,COc1ccc(C(=O)NCCN(C)C)c2nc3ccccc3cc12,"inconclusive: 16.4 µM [cytotoxic, partial curve, poor fit]"
9,O=[N+]([O-])c1ccc(NN=C(Oc2ccccc2)c2ccc([N+](=O)[O-])cc2)cc1,"inconclusive: 29.1 µM [cytotoxic, single point]"
10,COC(=O)CSC1=C(C#N)C(c2cccc(OC)c2)CC(=O)N1 (stereo unspecified),"inconclusive: 29.1 µM [cytotoxic, single point]"
11,Cc1onc(-c2ccc3c(c2)OCO3)c1-c1ccc2[nH]ccc2c1,"inconclusive: 29.1 µM [cytotoxic, single point] and inconclusive: 25.9 µM [cytotoxic, single point]"
12,COc1ccccc1CNC(=O)c1cc2c(=O)oc3ccc(C)cc3c2s1,inactive
13,O=C(/C=C1\NC2(CCCC2)Cc2ccccc21)C(=O)N/N=C/c1ccc(O)c(O)c1,"inconclusive: 23.1 µM [cytotoxic, single point]"
14,Cc1ccc(-n2c(=O)c3c4c(sc3n(Cc3cc(=O)n5cc(Cl)ccc5n3)c2=O)CCC4)cc1C,"inconclusive: 20.6 µM [rising, single point]"
15,O=c1c2c(nc(NCCO)n1CC1CCCCC1)-c1ccccc1CC21CCCC1,"inconclusive: 29.1 µM [cytotoxic, single point]"
16,CCc1cccc(OCC(=O)Nc2ccc(S(=O)(=O)Nc3ncccn3)cc2)c1,inactive
17,CCC1CCCCN1S(=O)(=O)c1ccc(NC(=O)c2nc(S(C)(=O)=O)ncc2Cl)cc1 (stereo unspecified),"inconclusive: 5.8 µM [cytotoxic, full curve]"
18,CCN(CC)CCCNC(=O)c1cc(-c2ccccc2)c(N2CCCCC2)s1,active: 18.4 µM
19,Cc1cc(C)c(OCCCCN(C)Cc2ccccc2)c(C)c1,inactive
20,Nc1nc(Cl)cc(Sc2ccc3ccccc3c2)n1,"inconclusive: 20.6 µM [cytotoxic, single point]"
21,NC(=S)NN=C(Cc1ccccc1)Cc1ccccc1,"inconclusive: 23.1 µM [cytotoxic, single point]"
22,C#CCN(C(=O)C1CCC(=O)N(CCc2cccc(F)c2)C1)C1CCCCC1 (stereo unspecified),inactive
23,O=C(Nc1nc2ccccc2[nH]1)C12CC3CC(CC(C3)C1)C2,"inconclusive: 23.1 µM [cytotoxic, single point]"
24,O=C(Nc1ccc(Cl)cc1)N(CCCN1CCOCC1)Cc1cccs1,inactive

# In a second layout: results already given.
row | Compound | Potency
1 | O=C1C=C(Nc2ccccc2)c2ccccc2C1=O | active: 5.8 µM
6 | Brc1ccc2[nH]c3c(c2c1)CCC3 | inconclusive: 29.1 µM [cytotoxic, single point]
13 | O=C(/C=C1\NC2(CCCC2)Cc2ccccc21)C(=O)N/N=C/c1ccc(O)c(O)c1 | inconclusive: 23.1 µM [cytotoxic, single point]
21 | NC(=S)NN=C(Cc1ccccc1)Cc1ccccc1 | inconclusive: 23.1 µM [cytotoxic, single point]

# Remaining list, next part.

row,Compound,Potency
1,Cc1ccc(OCCNC(=O)C(=O)NCc2ccco2)cc1,"inconclusive: 29.1 µM [cytotoxic, single point]"
2,Cc1ccc(C)c(C(=O)COC(=O)c2cc([N+](=O)[O-])ccc2NCCO)c1,"inconclusive: 2.06 µM [rising, partial curve, poor fit]"
3,c1ccc2c(CCNc3ncnc4nc[nH]c34)c[nH]c2c1,"inconclusive: 20.6 µM [cytotoxic, partial curve, poor fit]"
4,COc1ccc(Nc2cc(C)nc3c(C)cccc23)cc1OC,"inconclusive: 5.17 µM [cytotoxic, full curve]"
5,Cc1ccc2sc(NNC(=O)c3cc(=O)c4ccccc4o3)nc2c1C,"inconclusive: 20.6 µM [cytotoxic, single point]"
6,COc1ccccc1/C=C/C(=O)OCC(=O)Nc1ccc2c(c1)OCCO2,inactive
7,CN1c2ccc(C=O)c3c(C=O)ccc(c23)N(C)C1(C)C,"inconclusive: 23.1 µM [cytotoxic, single point]"
8,COc1cc2c(cc1OC)C1=NC(=O)CN1C(SCc1ccccc1C)=N2,inactive
9,COc1ccc(-c2coc3c(C(=O)Nc4ccc(OC)nc4)cccc23)c(C)c1,inactive
10,CCOc1ccc(NC(=O)[C@H](C)NC(=O)C2CC(=O)N(c3ccc(OC)cc3)C2)cc1 (stereo partly specified),"inconclusive: 0.259 µM [rising, full curve]"
11,COc1ccc(NC(=O)CSc2cc(C)ccc2C)cn1,inactive
12,C=CC[C@@H](Cc1ccc(F)cc1)C(=O)OC[C@@H]1CCCN1C(=O)[C@H](CC=C)CC(=O)N[C@H](CO)Cc1ccccc1,"inconclusive: 29.1 µM [cytotoxic, single point]"
13,CC(C)(CSc1ncccn1)NS(=O)(=O)c1ccccc1,"inconclusive: 18.4 µM [rising, single point]"
14,CCCC(C)NC(=O)C1CCN(C(=O)C2CC(=O)N(c3ccc(C)cc3)C2)CC1 (stereo unspecified),"inconclusive: 20.6 µM [rising, single point]"
15,Fc1cccc(Nc2ncnc3c2cnn3-c2ccccc2)c1,inactive
16,COc1ccc(N/N=C(\C#N)C(=N)N2CCCCC2)cc1,inactive
17,Cc1noc(C)c1-c1ccc(C(=O)Nc2ccccc2)c2occc12,inactive
18,COc1cc(-c2nnc(COC(=O)c3ccc(C)o3)o2)cc(OC)c1OC,"inconclusive: 8.2 µM [rising, single point]"
19,COc1ccc(NS(=O)(=O)c2cc(C)ccc2NC(=O)c2cc(C)oc2C)cc1,active: 0.0411 µM
20,CCNC(=O)c1c(NC(=O)c2nc(SCC)ncc2Cl)sc2c1CCCC2,"inconclusive: 0.651 µM [rising, full curve]"
21,C[C@H]1CN=C(Nc2ccccc2)N1CC1CCCCCC1,"inconclusive: 0.0461 µM [rising, full curve]"
22,CCn1c(C)nc2cc(S(=O)(=O)N3CCCC3)ccc21,inactive
23,Cc1ccc(N(Cc2cc3cc(C)ccc3[nH]c2=O)S(=O)(=O)c2ccccc2)cc1,"inconclusive: 23.1 µM [cytotoxic, partial curve, poor fit]"
24,Cc1cc(C)nc(/N=C(\N)Nc2ccc([N+](=O)[O-])cc2)n1,"inconclusive: 0.058 µM [rising, full curve]"

row,Compound,Potency
1,O=C(NC(=S)Nc1ccc(F)cc1)c1ccc2c(c1)OCCO2,active: 13 µM
2,CCOC(=O)C1CCCN(C(=O)c2cc(-c3ccc(F)cc3)nc3ccccc23)C1 (stereo unspecified),"inconclusive: 18.4 µM [rising, single point]"
3,CN(c1ccc(F)cc1)S(=O)(=O)c1ccc(Cl)c(C(=O)OCC(=O)NCc2ccco2)c1,inactive
4,CN(C)c1nc(NS(=O)(=O)c2ccc(Cl)cc2)nc(N(C)C)n1,inactive
5,Cc1cc(-c2cn3ccccc3n2)c(C)n1-c1ccccc1,"inconclusive: 18.4 µM [cytotoxic, single point]"
6,O=C1CCCN1c1ccc(N2CCCC2=O)cc1,"inconclusive: 4.11 µM [rising, partial curve]"
7,COc1ccc(N2CCN(C(=O)C3CCCN(S(=O)(=O)c4ccc(C)cc4)C3)CC2)cc1 (stereo unspecified),inactive
8,Cc1nn(-c2ccccc2)c2nc(N)c(C#N)c(-c3ccc(C(C)(C)C)cc3)c12,"inconclusive: 16.4 µM [cytotoxic, single point]"
9,Cn1c(=O)c(C(=O)Nc2ccccn2)c(O)c2ccccc21,active: 18.4 µM
10,COC(=O)C1C(C(=O)OC)C1(c1ccccc1)c1ccccc1 (stereo unspecified),inactive
11,CC(C)OCCCNc1ncnc2sc3c(c12)CCCC3,"inconclusive: 23.1 µM [cytotoxic, partial curve, poor fit]"
12,CCOC(=O)c1c(C)[nH]c(C)c1S(=O)(=O)N1CCC(C(=O)Nc2ccc(OCC)cc2)CC1,inactive
13,CCC(CO)Oc1cc(NCc2ccc(C(F)(F)F)cc2)c2ncn(C(C)C)c2c1 (stereo unspecified),"inconclusive: 16.4 µM [cytotoxic, single point]"
14,CC(C)(C)c1cc(C(=O)NN)n(Cc2ccc(F)cc2)n1,"inconclusive: 20.6 µM [cytotoxic, single point]"
15,Cc1cc(C)cc(NC(=O)Nc2cc(-c3ccccc3)nn2C)c1,"inconclusive: 0.651 µM [rising, full curve, poor fit]"
16,Cc1ccc(C)c(Cn2nnc3c(=O)[nH]c(C4CCCN(C(=O)c5cccs5)C4)nc32)c1 (stereo unspecified),inactive
17,Cn1c(=O)c2c([nH]c(=S)n2CCCc2ccccc2)n(C)c1=O,inactive
18,N#CCCC(C#N)(c1cccnc1)N1CCOCC1 (stereo unspecified),"inconclusive: 23.1 µM [rising, single point]"
19,Cc1ccccc1-c1nnc(SCC(=O)Nc2cccnc2Cl)o1,"inconclusive: 18.4 µM [cytotoxic, partial curve]"
20,COc1ccc(N(CC(=O)Nc2c(C)n(C)n(-c3ccccc3)c2=O)S(=O)(=O)c2ccc(C)cc2)cc1OC,inactive
21,COc1cc2ccccc2cc1C(=O)N/N=C/c1cccnc1,active: 16.4 µM
22,CCOC(=O)c1ccc(N2C(=O)c3[nH]nc(-c4ccc(C)cc4)c3C2c2cccs2)cc1 (stereo unspecified),"inconclusive: 29.1 µM [cytotoxic, single point]"
23,O=C(NCC1CCCO1)c1nn2c(c1Cl)NC(c1ccc(F)cc1)CC2C(F)(F)F (stereo unspecified),inactive

# From PubChem BioAssay AID1347075 (National Center for Advancing Translational Sciences (NCATS), 2019)
